Results reported in publication PMC10790703 (mBio, 2023).
These are yes or no findings as the source states them, for the method shown. In cells and extracts the contact can be indirect. Some results given as binding are weak or reduced against the parent protein; the word gives no strength.

The chains behind the UniProt entries cited, without tags or fusion partners.
UniProt P0DTC3: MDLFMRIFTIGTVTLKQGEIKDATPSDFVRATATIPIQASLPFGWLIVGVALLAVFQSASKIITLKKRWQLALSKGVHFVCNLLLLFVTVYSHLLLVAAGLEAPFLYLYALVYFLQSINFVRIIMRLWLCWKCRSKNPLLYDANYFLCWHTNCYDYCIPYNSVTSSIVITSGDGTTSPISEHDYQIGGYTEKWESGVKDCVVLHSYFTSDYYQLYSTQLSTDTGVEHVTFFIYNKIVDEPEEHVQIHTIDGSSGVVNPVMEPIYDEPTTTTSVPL

Key:
[1] = molecular target: T1, ubiquitin E3 ligase TRIM59 (human (endogenous in 293T)) (UniProt Q8IWR1); test: co-IP
T1 sequence: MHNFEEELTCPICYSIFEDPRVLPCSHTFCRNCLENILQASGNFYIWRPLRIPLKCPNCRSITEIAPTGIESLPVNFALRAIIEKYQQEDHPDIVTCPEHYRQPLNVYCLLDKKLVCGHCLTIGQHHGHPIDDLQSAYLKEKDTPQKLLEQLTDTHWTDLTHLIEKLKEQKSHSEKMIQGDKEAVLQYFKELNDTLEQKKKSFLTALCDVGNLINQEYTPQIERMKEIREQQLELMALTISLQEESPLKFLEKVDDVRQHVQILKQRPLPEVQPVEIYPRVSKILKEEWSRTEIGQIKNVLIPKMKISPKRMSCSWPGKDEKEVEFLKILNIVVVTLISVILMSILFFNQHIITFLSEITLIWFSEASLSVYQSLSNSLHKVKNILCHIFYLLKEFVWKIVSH

[2] = molecular target: T2, lysosome-associated membrane protein 1 (human (endogenous in 293T)) (UniProt P11279); test: co-IP
T2 sequence: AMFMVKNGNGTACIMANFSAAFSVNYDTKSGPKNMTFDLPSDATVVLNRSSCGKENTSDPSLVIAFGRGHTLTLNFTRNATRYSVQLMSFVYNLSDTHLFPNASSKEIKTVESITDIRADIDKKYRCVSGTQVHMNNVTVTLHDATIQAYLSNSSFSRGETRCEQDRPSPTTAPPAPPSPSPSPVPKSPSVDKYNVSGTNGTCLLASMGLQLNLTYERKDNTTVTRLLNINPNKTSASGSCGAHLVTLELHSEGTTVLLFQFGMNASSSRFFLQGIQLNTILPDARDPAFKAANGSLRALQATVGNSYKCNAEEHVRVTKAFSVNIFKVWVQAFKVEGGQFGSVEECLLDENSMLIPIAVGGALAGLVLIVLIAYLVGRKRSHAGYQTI

SARS-CoV-2 ORF3a protein, wild type, HA-tagged (from UniProt P0DTC3 1-275)
binding [1]: binds | binding [2]: binds
